From PMC9260856 come the findings set out here.

Chains of the proteins cited; added tags and fusions are not shown.
UniProt Q93009: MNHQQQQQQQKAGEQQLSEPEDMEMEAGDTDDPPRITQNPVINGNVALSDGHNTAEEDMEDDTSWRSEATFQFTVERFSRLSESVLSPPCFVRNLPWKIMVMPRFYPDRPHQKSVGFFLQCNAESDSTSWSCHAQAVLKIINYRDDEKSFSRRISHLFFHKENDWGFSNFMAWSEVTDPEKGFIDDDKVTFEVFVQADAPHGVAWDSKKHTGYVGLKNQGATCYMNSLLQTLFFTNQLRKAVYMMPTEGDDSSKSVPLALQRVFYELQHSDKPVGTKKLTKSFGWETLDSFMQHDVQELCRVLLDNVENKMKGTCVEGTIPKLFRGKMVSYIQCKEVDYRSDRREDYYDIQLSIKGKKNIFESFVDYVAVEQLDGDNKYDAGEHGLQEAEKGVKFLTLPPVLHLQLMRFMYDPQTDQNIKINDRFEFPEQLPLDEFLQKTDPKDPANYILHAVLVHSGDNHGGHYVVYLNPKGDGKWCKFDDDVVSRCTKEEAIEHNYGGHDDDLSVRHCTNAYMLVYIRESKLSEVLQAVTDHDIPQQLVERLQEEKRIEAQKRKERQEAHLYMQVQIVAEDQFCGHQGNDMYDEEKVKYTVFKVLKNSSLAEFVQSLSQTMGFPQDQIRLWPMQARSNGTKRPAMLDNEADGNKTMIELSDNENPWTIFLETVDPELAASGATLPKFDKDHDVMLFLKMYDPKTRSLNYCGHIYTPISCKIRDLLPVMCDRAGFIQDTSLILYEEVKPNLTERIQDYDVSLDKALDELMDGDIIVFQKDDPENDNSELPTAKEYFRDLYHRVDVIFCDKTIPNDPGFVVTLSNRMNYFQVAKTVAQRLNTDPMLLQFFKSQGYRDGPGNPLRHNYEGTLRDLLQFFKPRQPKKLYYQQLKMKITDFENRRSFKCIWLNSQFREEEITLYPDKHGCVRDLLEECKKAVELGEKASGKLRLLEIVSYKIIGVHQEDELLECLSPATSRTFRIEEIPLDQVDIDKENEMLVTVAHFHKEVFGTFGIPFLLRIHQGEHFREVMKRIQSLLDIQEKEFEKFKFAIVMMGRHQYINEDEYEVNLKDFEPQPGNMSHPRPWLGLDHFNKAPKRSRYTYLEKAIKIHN
UniProt P63208: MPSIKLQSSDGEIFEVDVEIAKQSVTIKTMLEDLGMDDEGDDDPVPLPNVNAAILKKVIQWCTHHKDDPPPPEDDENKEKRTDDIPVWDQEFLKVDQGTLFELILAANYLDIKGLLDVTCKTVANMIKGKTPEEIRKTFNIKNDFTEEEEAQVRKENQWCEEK
UniProt O75618: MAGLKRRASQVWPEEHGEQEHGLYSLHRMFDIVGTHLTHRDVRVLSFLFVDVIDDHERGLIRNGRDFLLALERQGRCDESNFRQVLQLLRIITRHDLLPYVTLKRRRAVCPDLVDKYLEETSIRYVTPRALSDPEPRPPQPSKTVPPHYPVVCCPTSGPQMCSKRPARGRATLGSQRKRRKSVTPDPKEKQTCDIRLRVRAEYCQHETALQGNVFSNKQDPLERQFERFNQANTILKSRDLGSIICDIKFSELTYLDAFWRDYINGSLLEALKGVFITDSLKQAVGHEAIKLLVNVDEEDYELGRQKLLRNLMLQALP

These are yes or no findings as the source states them, for the method shown. In cells and extracts the contact can be indirect. Here binding means that the protein was enriched with, or labelled near, the bait; the list need not be complete. Tags and fused reporters may be left off the sequences shown.

Test [1] concerns the target T1, StrepII-FLAG-tagged FBXO38 (SF-FBXO38), expressed in HeLa cells (human) (UniProt Q6PIJ6).
T1 sequence: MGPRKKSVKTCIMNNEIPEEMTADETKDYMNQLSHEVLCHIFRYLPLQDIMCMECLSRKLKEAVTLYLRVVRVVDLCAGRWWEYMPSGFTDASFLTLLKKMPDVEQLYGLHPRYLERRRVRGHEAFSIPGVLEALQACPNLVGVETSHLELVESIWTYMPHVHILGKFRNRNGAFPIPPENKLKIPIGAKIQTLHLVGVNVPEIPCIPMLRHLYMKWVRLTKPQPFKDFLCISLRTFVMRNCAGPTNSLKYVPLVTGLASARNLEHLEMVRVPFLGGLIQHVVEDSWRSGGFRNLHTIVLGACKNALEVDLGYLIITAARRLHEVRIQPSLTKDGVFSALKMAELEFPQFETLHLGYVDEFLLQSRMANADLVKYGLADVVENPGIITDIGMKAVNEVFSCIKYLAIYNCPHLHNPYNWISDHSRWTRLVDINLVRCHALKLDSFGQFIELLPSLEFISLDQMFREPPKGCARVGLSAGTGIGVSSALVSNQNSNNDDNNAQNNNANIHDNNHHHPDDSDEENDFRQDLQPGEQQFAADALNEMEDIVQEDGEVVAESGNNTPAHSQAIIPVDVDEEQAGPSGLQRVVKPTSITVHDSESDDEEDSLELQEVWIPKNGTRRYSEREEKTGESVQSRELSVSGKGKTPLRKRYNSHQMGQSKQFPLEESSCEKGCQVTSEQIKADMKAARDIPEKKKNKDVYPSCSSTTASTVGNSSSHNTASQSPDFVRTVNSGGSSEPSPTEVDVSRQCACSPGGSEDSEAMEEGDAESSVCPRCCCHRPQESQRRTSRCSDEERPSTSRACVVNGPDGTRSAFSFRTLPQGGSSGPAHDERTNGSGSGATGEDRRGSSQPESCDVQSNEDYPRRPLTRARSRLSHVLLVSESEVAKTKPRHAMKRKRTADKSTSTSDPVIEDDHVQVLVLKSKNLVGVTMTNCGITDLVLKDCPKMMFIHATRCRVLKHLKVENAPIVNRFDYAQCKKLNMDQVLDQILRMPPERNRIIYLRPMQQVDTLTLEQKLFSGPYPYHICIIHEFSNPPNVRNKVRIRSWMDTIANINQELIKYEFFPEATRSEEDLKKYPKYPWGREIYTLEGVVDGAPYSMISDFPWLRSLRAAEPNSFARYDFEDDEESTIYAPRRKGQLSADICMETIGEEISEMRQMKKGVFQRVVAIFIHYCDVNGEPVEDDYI
Description: affinity purification with mass spectrometry; SF-FBXO38 affinity-purified from HeLa cells, LC-MS/MS; parental HeLa cells as negative control.

In test [2] the target is T2, StrepII-FLAG-tagged ZXDA (SF-ZXDA), transfected in HEK293T cells (human) (UniProt P98168).
T2 sequence: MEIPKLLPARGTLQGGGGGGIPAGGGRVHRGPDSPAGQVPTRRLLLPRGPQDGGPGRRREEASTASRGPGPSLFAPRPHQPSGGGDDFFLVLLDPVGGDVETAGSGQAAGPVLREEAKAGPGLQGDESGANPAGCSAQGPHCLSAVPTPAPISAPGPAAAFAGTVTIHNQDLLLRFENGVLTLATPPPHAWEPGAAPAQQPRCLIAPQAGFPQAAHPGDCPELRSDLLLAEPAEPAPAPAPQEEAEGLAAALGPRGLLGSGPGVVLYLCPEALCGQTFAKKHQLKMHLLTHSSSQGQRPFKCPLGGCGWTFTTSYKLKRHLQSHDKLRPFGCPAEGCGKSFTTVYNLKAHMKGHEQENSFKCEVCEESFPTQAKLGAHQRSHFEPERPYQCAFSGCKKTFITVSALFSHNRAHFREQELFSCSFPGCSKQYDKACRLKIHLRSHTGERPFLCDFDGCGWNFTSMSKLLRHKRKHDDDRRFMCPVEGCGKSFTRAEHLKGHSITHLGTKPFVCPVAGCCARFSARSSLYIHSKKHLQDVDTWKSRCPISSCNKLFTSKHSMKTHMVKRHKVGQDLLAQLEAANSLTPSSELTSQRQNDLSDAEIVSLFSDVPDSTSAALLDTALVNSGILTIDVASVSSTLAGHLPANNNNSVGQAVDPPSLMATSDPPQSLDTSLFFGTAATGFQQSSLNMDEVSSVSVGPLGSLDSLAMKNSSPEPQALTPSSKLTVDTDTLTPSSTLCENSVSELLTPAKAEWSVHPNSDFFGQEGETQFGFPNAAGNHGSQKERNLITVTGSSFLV
Description: affinity purification with mass spectrometry; SF-ZXDA affinity-purified from transiently transfected HEK293T cells, whole-cell lysates prepared with turbonuclease, LC-MS/MS.

Test [3] concerns the target T3, StrepII-FLAG-tagged ZXDA (SF-ZXDA), inducibly expressed in HeLa cells (human) (UniProt P98168).
T3 sequence: T2 sequence
Put plainly: affinity purification with mass spectrometry; SF-ZXDA affinity-purified from stably transfected HeLa cells with inducible expression, whole-cell lysates prepared with turbonuclease, LC-MS/MS.

In test [4] the target is T4, StrepII-FLAG-tagged wild-type FBXO38 (SF-FBXO38 WT), transfected in HEK293T cells (human) (UniProt Q6PIJ6).
T4 sequence: T1 sequence
Description: affinity purification with mass spectrometry; tandem affinity purification from HEK293T cells co-transfected with SF-tagged and HA-tagged proteins: Strep-Tactin, then HA immunoprecipitation, elution with 3M NaSCN.

On to “USP7 deubiquitinase, endogenous in HeLa cells (from UniProt Q93009 1-1102) (enzyme)”, for which the binding entry in test [1] is given as “binds”.
“SKP1, endogenous in HeLa cells (from UniProt P63208 1-163)”: the binding result in test [1] is given as “binds”.
“DEDD, endogenous in HeLa cells (from UniProt O75618 1-318)”: the binding entry in test [1] is “binds”.

B1: SUGT1, endogenous in HeLa cells (protein, UniProt Q9Y2Z0 1-365)
chain: MAAAAAGTATSQRFFQSFSDALIDEDPQAALEELTKALEQKPDDAQYYCQRAYCHILLGNYCVAVADAKKSLELNPNNSTAMLRKGICEYHEKNYAAALETFTEGQKLDIETGFHRVGQAGLQLLTSSDPPALDSQSAGITGADANFSVWIKRCQEAQNGSESEVWTHQSKIKYDWYQTESQVVITLMIKNVQKNDVNVEFSEKELSALVKLPSGEDYNLKLELLHPIIPEQSTFKVLSTKIEIKLKKPEAVRWEKLEGQGDVPTPKQFVADVKNLYPSSSPYTRNWDKLVGEIKEEEKNEKLEGDAALNRLFQQIYSDGSDEVKRAMNKSFMESGGTVLSTNWSDVGKRKVEINPPDDMEWKKY
On to B1, for which, in test [1], the binding result was “binds”.

B2: FAM172A, endogenous in HeLa cells (protein, UniProt Q8WUF8 19-416)
chain: QIQQGGPDEKEKTTALKDLLSRIDLDELMKKDEPPLDFPDTLEGFEYAFNEKGQLRHIKTGEPFVFNYREDLHRWNQKRYEALGEIITKYVYELLEKDCNLKKVSIPVDATESEPKSFIFMSEDALTNPQKLMVLIHGSGVVRAGQWARRLIINEDLDSGTQIPFIKRAVAEGYGVIVLNPNENYIEVEKPKIHVQSSSDSSDEPAEKRERKDKVSKETKKRRDFYEKYRNPQREKEMMQLYIRENGSPEEHAIYVWDHFIAQAAAENVFFVAHSYGGLAFVELMIQREADVKNKVTAVALTDSVHNVWHQEAGKTIREWMRENCCNWVSSSEPLDTSVESMLPDCPRVSAGTDRHELTSWKSFPSIFKFFTEASEAKTSSLKPAVTRRSHRIKHEEL
In the case of B2, the binding entry in test [1] is recorded as “binds”.

B3: centromere protein B (CENP-B), endogenous in HEK293T cells (protein, UniProt P07199 1-599)
chain: MGPKRRQLTFREKSRIIQEVEENPDLRKGEIARRFNIPPSTLSTILKNKRAILASERKYGVASTCRKTNKLSPYDKLEGLLIAWFQQIRAAGLPVKGIILKEKALRIAEELGMDDFTASNGWLDRFRRRHGVVSCSGVARARARNAAPRTPAAPASPAAVPSEGSGGSTTGWRAREEQPPSVAEGYASQDVFSATETSLWYDFLPDQAAGLCGGDGRPRQATQRLSVLLCANADGSEKLPPLVAGKSAKPRAGQAGLPCDYTANSKGGVTTQALAKYLKALDTRMAAESRRVLLLAGRLAAQSLDTSGLRHVQLAFFPPGTVHPLERGVVQQVKGHYRQAMLLKAMAALEGQDPSGLQLGLTEALHFVAAAWQAVEPSDIAACFREAGFGGGPNATITTSLKSEGEEEEEEEEEEEEEEGEGEEEEEEGEEEEEEGGEGEELGEEEEVEEEGDVDSDEEEEEDEESSSEGLEAEDWAQGVVEAGGSFGAYGAQEEAQCPTLHFLEGGEDSDSDSEEEDDEEEDDEDEDDDDDEEDGDEVPVPSFGEAMAYFAMVKRYLTSFPIDDRVQSHILHLEHDLVHVTRKNHARQAGVRGLGHQS
For the molecule B3, the binding result in test [2] is on record as “binds”.

B4: centromere protein B (CENP-B), endogenous in HeLa cells (protein, UniProt P07199 1-599)
chain: B3 chain
For the molecule B4, the binding entry in test [3] is given as “binds”.

B5: DEDD2, endogenous in HeLa cells (protein, UniProt Q8WXF8 1-326)
chain: MALSGSTPAPCWEEDECLDYYGMLSLHRMFEVVGGQLTECELELLAFLLDEAPGAAGGLARARSGLELLLELERRGQCDESNLRLLGQLLRVLARHDLLPHLARKRRRPVSPERYSYGTSSSSKRTEGSCRRRRQSSSSANSQQGQWETGSPPTKRQRRSRGRPSGGARRRRRGAPAAPQQQSEPARPSSEGKVTCDIRLRVRAEYCEHGPALEQGVASRRPQALARQLDVFGQATAVLRSRDLGSVVCDIKFSELSYLDAFWGDYLSGALLQALRGVFLTEALREAVGREAVRLLVSVDEADYEAGRRRLLLMEEEGGRRPTEAS
In the case of B5, in test [1], the binding entry is on record as “binds”.

B6: HA-tagged full-length (FL) ZXDA, transfected in HEK293T cells (protein, UniProt P98168 1-799)
chain: T2 sequence
As to B6, the binding result in test [4] is reported as “binds”.
